How the values were obtained:
[1] = general procedure: Fmoc solid-phase peptide synthesis; Fmoc-NH-SAL resin; DIC / 1-hydroxybenztriazole; conditions: whole synthesis
[2] = general procedure: Fmoc solid-phase peptide synthesis; (2-chloro) trityl chloride resin; DIC / 1-hydroxybenztriazole; conditions: whole synthesis, scale 0.30 mmol

With Ac-YFYPEL-NH2 as the substance, how does the crude mass ([1]; scale 0.1 mmol) read?
The crude mass was 90.6 mg.

For Ac-ALRAL-NH2, which crude mass ([1]; scale 0.15 mmol) is on record?
The crude mass was 90.6 mg.

Which crude mass [2] does the source give for H-YERAKSNM-OH here?
The crude mass was 179.5 mg.
